According to US11458135B2, “Combination of pure 5-HT6 receptor antagonists with acetylcholinesterase inhibitors” (priority 2016, dated 2022):

Assay: Rodent pharmacokinetic study for assessment of drug interaction
Conditions: compound 1 3 mg/kg, p.o., donepezil 1 mg/kg, s.c.; male Wistar rats
Description: Male Wistar rats (260±50 grams) were used as experimental animals. Animals were housed individually in polypropylene cages and acclimatized for three days prior to study.
Blood was collected through retro orbital plexus under isoflurane anesthesia. Collected blood was transferred into a pre-labeled eppendorf tube containing 10 μL of sodium heparin as an anticoagulant. Blood samples were collected at following time points: 0.33, 0.66, 1, 1.5, 2, 4, 6, 8 and 24 hours post dose. Blood was centrifuged at 4000 rpm for 10 minutes. Plasma was separated and stored frozen at −80 ° C. until analysis. […] The test compounds were quantified in the calibration range around 0.05-100 ng/mL in plasma. Study samples were analyzed using calibration samples in the batch and quality control samples spread across the batch.
Pharmacokinetic parameters Cmax, Tmax and AUClast were calculated by non-compartmental model using Phoenix WinNonlin 6.4.0 version Software package.

Which “difference in plasma exposures administered alone or in combination” value does the source give for COc1cc2c(cc1OC)C(=O)C(CC1CCN(Cc3ccccc3)CC1)C2 (stereo not shown) [Donepezil] here?
The value was “No significant difference”.
